Laboratory results published in PMC4753479.

The chains behind the UniProt entries cited, without tags or fusion partners. Where a name states a change or a piece, a line headed by the entry shows the natural chain unless it says otherwise.
UniProt Q40704: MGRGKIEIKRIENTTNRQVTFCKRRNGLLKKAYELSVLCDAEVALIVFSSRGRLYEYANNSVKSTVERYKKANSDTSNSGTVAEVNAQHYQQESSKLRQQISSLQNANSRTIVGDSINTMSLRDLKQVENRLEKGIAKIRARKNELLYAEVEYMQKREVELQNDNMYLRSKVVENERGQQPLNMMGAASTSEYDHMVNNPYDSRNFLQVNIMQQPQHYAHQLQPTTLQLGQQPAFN

Key:
Assay in all cases: restriction protection (CBA)
rOsGD1-B3 (rice) = target: T1, rOsGD1-B3 (rice) (UniProt Q0D5G4); conditions: CBA: restriction enzyme buffer, 1-7 ug protein, 30 min at 37 C then 1 h digestion at 37 C, recombinant protein, probe letters rebuilt from the primers and the genome
T1 sequence (looked up): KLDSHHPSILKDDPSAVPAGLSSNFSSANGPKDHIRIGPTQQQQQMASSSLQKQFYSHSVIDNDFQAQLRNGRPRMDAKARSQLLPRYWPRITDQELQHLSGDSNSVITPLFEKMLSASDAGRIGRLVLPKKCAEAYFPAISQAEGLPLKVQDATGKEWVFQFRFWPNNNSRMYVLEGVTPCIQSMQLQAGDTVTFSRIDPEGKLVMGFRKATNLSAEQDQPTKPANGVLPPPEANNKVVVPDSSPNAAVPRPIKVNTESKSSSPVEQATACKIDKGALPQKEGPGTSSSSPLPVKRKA

rOsMADS3 (rice) = rOsMADS3 (rice) (UniProt Q40704); conditions: NsiI, up to 7 ug; CBA: restriction enzyme buffer, 150 ng DNA, 1-7 ug protein, 15 ul, 30 min at 37 C then 1 h digestion at 37 C; recombinant protein; protein details: GST (pGEX4T-2); probe letters rebuilt from the primers and the genome
rOsVAL2-B3 (rice) = target: T2, rOsVAL2-B3 (rice) (UniProt Q6Z3U3); conditions: NsiI, same inhibitory effect as 5 ug rOsGD1-B3, 150 ng DNA in 15 ul, CBA: restriction enzyme buffer, 1-7 ug protein, 30 min at 37 C then 1 h digestion at 37 C, recombinant protein, residues 144-517, protein details: 6xHis (pGoldI), probe letters rebuilt from the primers and the genome
T2 sequence (looked up): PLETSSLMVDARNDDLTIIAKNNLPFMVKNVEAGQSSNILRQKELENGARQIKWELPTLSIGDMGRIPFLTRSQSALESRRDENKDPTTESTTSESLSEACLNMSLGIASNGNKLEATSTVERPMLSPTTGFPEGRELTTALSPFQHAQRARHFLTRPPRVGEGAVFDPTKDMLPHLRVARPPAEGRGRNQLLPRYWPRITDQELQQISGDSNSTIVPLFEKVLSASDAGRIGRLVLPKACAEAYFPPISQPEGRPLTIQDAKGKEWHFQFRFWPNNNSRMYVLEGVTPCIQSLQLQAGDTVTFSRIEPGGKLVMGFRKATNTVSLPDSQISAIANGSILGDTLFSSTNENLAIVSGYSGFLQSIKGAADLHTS

Sequence	binding result (rOsGD1-B3 (rice); NsiI and MmeI, 150 ng DNA, 15 ul, residues 342-640, protein details: 6xHis (pGoldI))	binding result (rOsMADS3 (rice))	binding signal (rOsGD1-B3 (rice); NsiI, dose for inhibition, 150 ng DNA in 15 ul, residues 342-640, protein details: 6xHis (pGoldI)) [µg protein]	binding signal (rOsVAL2-B3 (rice)) [µg protein]
CCATGTAGGACTTTTAGCTTATGTGGCACTATATTAATTAAGAGAGAGAGTGAAGAGAGGAAGAAACTGGGTCTCATGCAAGACACAGCTTCAACACGAGAACCTATGCACTAAACACTATCAAGTTTTGTATTGGGAGAGAATAGTGTCTTCATAATATATAAAGAATAAATATGATTGATAGAGAAGAGAGATGATATATTTATTAATGGCCCACTTTAAGAGACCATAGGTTGTAGAGTGTAGTTTCTATTGTGATGTCTTATTGACATGGCACCATAGGCACTGCTTATAGACACTATGAGTTGGGACTGCCCTAAGGCGTGCATATATGCATGCAATTAATTAGTACCTCTGTTGGATTAAATTATGATTTTTTTTAAATTATCGACCCTCATGATCTCT (double strand) [M3 RY-DNA 405 bp]	binds	–	–	–
GCACCCAATAGAATTAGAGATCATGAGGGTCGATAATTTAAAAAAAATCATAATTTAATCTAGAAGAGGTACTAATTAATTGCATGCATATATGCACGCCTTAGGGCAGTCCCAACTCATAGTGTCTATAAGCAGTGCCTATGGTGCCATGTCAATAAGACATCACAATAGAAACTACACTCTACAACCTATGGTCTCTTAAAGTGGGCCATTAATAAATATATCATCTCTCTTCTCTATCAATCATATTTATTCTTTATATATTATGAAGACACTATTCTCTCCCAATACAAAACTTGATAGTGTTTAGTGCATAGGTTCTCGTGTTGAAGCTGTGTCTTGCATGAGACCCAGTTTCTTCCTCTCTTCACTCTCTCTCTTAATTAATATAGTGCCACATAAGCTAAAAGTCCTACATGG (double strand) [WT RY-DNA 420 bp]	–	no binding	5	3

For some of these results: Protein sequences can lack the tags named with them. For some of these results: For at least one entry, the source does not settle the construct or the ends of the probe. For some of these results: No signal at the amounts used counts as a negative. For some of these results: Whether high values mean tight binding is not given here for every scale.
